Measured data: PubChem BioAssay AID1259254 (NCATS, 2017)
Here is one part, drawn at random, of about 59,000 reagents. Of all reagents, about 1,550 (2.6%) were called active. 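G2 share is only a proxy for re-replication; each gene was hit by three separate siRNAs, and active genes were retested.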 A number with no mark means an inactive call. The numbers tell different reagents against one gene apart. Not all columns of the deposit are shown. Not given: the amount of reagent.

Test: 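Finding genes that stop cells copying their DNA twice in one cycle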 (primary screen)
System: human HCT116 colorectal cancer cells
Reagent: single siRNA against human genes
Timing: 3 days
Measurement: 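Nuclei stained with Hoechst and imaged; cell-cycle phase assigned by DNA content; G2 share scaled per plate, non-targeting siRNA 0%, GMNN siRNA 100%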
Reading the numbers: G2 robust z-score: higher = more G2 cells, more excess DNA replication
Hit rule: 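Active siRNAs have a G2 robust z of 5 or more median absolute deviations over the median, which in these data means about 38% or higher of GMNN control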

Against TMX1 #1, the entry reads G2 robust z-score 2.48. TMX1 #2 scored G2 robust z-score 1.26. TMX1 #3 gave G2 robust z-score 0.491. STXBP6 #1 gave G2 robust z-score 0.155. Silencing of STXBP6 #2 gave: G2 robust z-score -0.309. Depletion of STXBP6 #3 gave: G2 robust z-score -0.239.

Against POLE2 #1, the entry reads G2 robust z-score -1.04. POLE2 #2 showed G2 robust z-score -0.401. POLE2 #3 gave G2 robust z-score -0.437. After knock-down of NPY #1, the record shows G2 robust z-score -0.458. NPY #2 scored G2 robust z-score 1.08. Against NPY #3 the deposit lists G2 robust z-score -0.351.

Laid out differently: entries from further up
{"Gene":"STXBP6","reagent":2,"G2 robust z-score":-0.309}
{"Gene":"STXBP6","reagent":3,"G2 robust z-score":-0.239}
{"Gene":"POLE2","reagent":1,"G2 robust z-score":-1.04}

Continued:
CT55P1 #1 scored G2 robust z-score 0.247. For CT55P1 #2, the values are G2 robust z-score 0.232. Against CT55P1 #3 the deposit lists G2 robust z-score -1.33. With knock-down of MAP6D1 #1 the results were G2 robust z-score 1.79. Knock-down of MAP6D1 #2 gave: G2 robust z-score 1.02. For MAP6D1 #3 the deposit lists G2 robust z-score -0.315.

Silencing of PPIG #1 resulted in: G2 robust z-score 0.0811. PPIG #2 gave G2 robust z-score 0.337. Depletion of PPIG #3 resulted in: G2 robust z-score -0.061. Depletion of CAMTA1 #1 resulted in: G2 robust z-score 1.25. Silencing of CAMTA1 #2 resulted in: G2 robust z-score 0.327. After knock-down of CAMTA1 #3 the results were G2 robust z-score -0.588.

EPS15 #1 showed G2 robust z-score 2.36. Against EPS15 #2 the deposit lists G2 robust z-score -0.55. For EPS15 #3 the deposit lists G2 robust z-score -0.369. PCBD2 #1 showed G2 robust z-score -1.04. After knock-down of PCBD2 #2 the results were G2 robust z-score 4.2. Silencing of PCBD2 #3 gave: G2 robust z-score -0.351.
